The list does not hold the whole screen: it gathers tests that were run many times, whatever their T/C, doses with no T/C, and many T/C values between a quarter and a half above the control. Other doses and runs of a compound stand elsewhere. T/C gives the treated animals as a percentage of the vehicle group. Some entries give survivors of the animals treated and no T/C: the source files T/C as zero there, which appears to mark a toxic dose or a test without result, not a measured value. Some survivor counts are full or nearly so, which does not show that the dose was tolerated: the source hardly ever lists a survival T/C far under the control, and the zero likely stands for such cases as well. Counts of survivors are from the toxicity check (mostly the fifth day) where no day follows; animals may have died later. Schedules are NCI's codes, taken here to give the interval after Q, in days (D) or hours (H), and the number of doses after X. Some doses were run more than once; their values stand side by side, smallest first. Some schedule codes hold Z or #, which are not explained here. Additions like (4×) say how often a value occurs here. Where survival is the endpoint, the PubChem record calls one and a half times the control and up active, and a quarter to a half above the control has no call in these data; cut-offs in other NCI protocols can differ.

The subject of this test is L1210 leukemia ip in BDF1 mice, survival T/C. Briefly: NCI In Vivo Anticancer Drug Screen. Data for tumor model L1210 Leukemia (intraperitoneal) in B6D2F1 (BDF1) mice. Conditions: T/C endpoint: mean survival time, higher T/C = longer survival.
Where [1] appears, read: dose: 400.0 mg/kg/injection, schedule: Q04DX003 (ip), vehicle: saline with Tween-80.
[2] abbreviates: dose: 200.0 mg/kg/injection, schedule: Q01DX009 (ip), vehicle: Klucel (hydroxypropylcellulose) (HPC).
Where [3] appears, read: dose: 400.0 mg/kg/injection, schedule: Q01DX009 (ip), vehicle: Klucel (hydroxypropylcellulose) (HPC).
[4] abbreviates: dose: 150.0 mg/kg/injection, schedule: Q01DX001 (ip), vehicle: saline.
[5] abbreviates: dose: 300.0 mg/kg/injection, schedule: Q01DX001 (ip), vehicle: saline.
Where [6] appears, read: dose: 200.0 mg/kg/injection, schedule: Q01DX001 (ip), vehicle: saline.
The mark [7] stands for this setting: dose: 400.0 mg/kg/injection, schedule: Q01DX001 (ip), vehicle: saline.
Setting [8] is: dose: 20.0 mg/kg/injection, schedule: Q01DX Z (ip), vehicle: saline.

Take `Cc1nc(N)nc(N)c1[N+](=O)[O-]`: the survivor count (dose: 500.0 mg/kg/injection, schedule: Q01DX Z (oral), vehicle: methylcellulose (MC)) is 3 of 6.
For `O=Cc1ccc(C(=O)O)cc1O`, the survivor count under setting [1] is given as 2 of 3.
For the molecule `O=[N+]([O-])c1cc2c(cc1/C=N/N=C1c3ccccc3-c3ccccc31)OCO2`, the survivor count (dose: 300.0 mg/kg/injection, schedule: Q01DX001 (ip), vehicle: other) is 6 of 6.
As for `O=[As](O)(CC(O)COc1ccccc1)c1cccc(Cl)c1` (centres undefined), the survivor count is 6 of 6 (dose: 25.0 mg/kg/injection, schedule: Q04DX003 (ip), vehicle: saline with Tween-80); 6 of 6 (dose: 50.0 mg/kg/injection, schedule: Q04DX003 (ip), vehicle: saline with Tween-80); 0 of 6 (2×) (dose: 100.0 mg/kg/injection, schedule: Q04DX003 (ip), vehicle: saline with Tween-80); 0 of 6 (dose: 200.0 mg/kg/injection, schedule: Q04DX003 (ip), vehicle: saline with Tween-80); 0 of 6 under setting [1].
Consider `CC(CO)CCC(O)C(C)C1CCC2C3CCC4CC(O)CCC4(C)C3CCC12C` (centres undefined), for which the survivor count is listed as 6 of 6 (dose: 25.0 mg/kg/injection, schedule: Q01DX001 (ip), vehicle: saline with Tween-80); 6 of 6 (dose: 50.0 mg/kg/injection, schedule: Q01DX001 (ip), vehicle: saline with Tween-80); 6 of 6 (dose: 100.0 mg/kg/injection, schedule: Q01DX001 (ip), vehicle: saline with Tween-80); 6 of 6 (dose: 200.0 mg/kg/injection, schedule: Q01DX001 (ip), vehicle: saline with Tween-80).
Regarding `S=C(NCCN1CCCC1)Nc1ccccc1`, the survivor count under setting [2] was 2 of 6 and the survivor count under setting [3] was 0 of 6.
For `CCCCCCCC/C=C/CCCCCCCC(=O)NCC[N+]1(C)CCCCC1`, the survivor count was 0 of 6 under setting [4] and 0 of 6 under setting [5].
As for `CC1=N/C(=C/c2ccc([N+](=O)[O-])s2)C(=O)O1`, the survivor count (dose: 100.0 mg/kg/injection, schedule: Q04DX002 (ip), vehicle: Klucel (hydroxypropylcellulose) (HPC)) is listed as 3 of 3.
Consider `O=P(O)(O)CCC(F)(F)C(F)(F)C(F)(F)C(F)(F)C(F)(F)C(F)(F)C(F)(F)F`, for which the survivor count runs as follows: under setting [4], 3 of 6; under setting [5], 0 of 6.
Take `CC(=O)N(c1ccncc1)c1ccc([N+](=O)[O-])cc1`: the survivor count is 0 of 3 and 0 of 6 (dose: 400.0 mg/kg/injection, schedule: Q01DX009 (ip), vehicle: saline with Tween-80); 0 of 3 (dose: 400.0 mg/kg/injection, schedule: Q04DX002 (ip), vehicle: saline with Tween-80).
With `Cc1c(Br)c(=O)n(-c2ccccc2)n1C`, the survivor count (dose: 400.0 mg/kg/injection, schedule: Q04DX003 (ip), vehicle: Klucel (hydroxypropylcellulose) (HPC)) was 1 of 6.
Take `O=C1CN(CCl)C(=O)CN1CCl`: the survivor count reads like this: (dose: 200.0 mg/kg/injection, schedule: Q01DX009 (ip), vehicle: water) 2 of 6; (dose: 400.0 mg/kg/injection, schedule: Q01DX009 (ip), vehicle: water) 0 of 6.
For `Nc1ccc(O)c2ncccc12`, the survivor count by setting is: (dose: 25.0 mg/kg/injection, schedule: Q01DX009 (ip), vehicle: saline) 2 of 6; (dose: 50.0 mg/kg/injection, schedule: Q01DX009 (ip), vehicle: saline) 0 of 6; (dose: 100.0 mg/kg/injection, schedule: Q01DX001 (ip), vehicle: saline) 0 of 4; under setting [6], 0 of 4; under setting [7], 0 of 4.
As for `CC(=O)NC1=C(N2CC2C)C(=O)C(NC(C)=O)=C(N2CC2C)C1=O` (centres undefined), the survivor count is, setting by setting: (dose: 1.25 mg/kg/injection, schedule: Q01DX009 (ip), vehicle: saline) 5 of 6; (dose: 2.5 mg/kg/injection, schedule: Q01DX009 (ip), vehicle: saline) 6 of 6; (dose: 5.0 mg/kg/injection, schedule: Q01DX009 (ip), vehicle: saline) 6 of 6; (dose: 10.0 mg/kg/injection, schedule: Q01DX009 (ip), vehicle: saline) 6 of 6; (dose: 19.0 mg/kg/injection, schedule: Q01DX009 (ip), vehicle: saline) 3 of 6 and 5 of 6; under setting [8], 6 of 6. In addition, the survivor count is, setting by setting: (dose: 35.0 mg/kg/injection, schedule: Q01DX009 (ip), vehicle: saline) 6 of 6; (dose: 37.5 mg/kg/injection, schedule: Q01DX009 (ip), vehicle: saline) 2 of 6; (dose: 38.0 mg/kg/injection, schedule: Q01DX009 (ip), vehicle: saline) 4 of 6; (dose: 40.0 mg/kg/injection, schedule: Q01DX Z (ip), vehicle: other) 5 of 6; (dose: 40.0 mg/kg/injection, schedule: Q01DX Z (ip), vehicle: saline) 3 of 6 and 6 of 6; (dose: 60.0 mg/kg/injection, schedule: Q01DX Z (ip), vehicle: other) 6 of 6. The survivor count (dose: 75.0 mg/kg/injection, schedule: Q01DX009 (ip), vehicle: saline) was 5 of 6; the survivor count (dose: 80.0 mg/kg/injection, schedule: Q01DX Z (ip), vehicle: saline) is 4 of 6; the survivor count (dose: 90.0 mg/kg/injection, schedule: Q01DX Z (ip), vehicle: other) is given as 3 of 6; the survivor count (dose: 135.0 mg/kg/injection, schedule: Q01DX Z (ip), vehicle: other) is on record as 0 of 6; the survivor count (dose: 150.0 mg/kg/injection, schedule: Q01DX009 (ip), vehicle: saline) is 1 of 6 and 2 of 6; the survivor count under setting [6] was 1 of 6. For the same molecule, the survivor count is, setting by setting: under setting [5], 1 of 6; (dose: 300.0 mg/kg/injection, schedule: Q01DX009 (ip), vehicle: saline) 0 of 6; under setting [7], 0 of 6. Further, the T/C is, setting by setting: (dose: 2.5 mg/kg/injection, schedule: Q01DX Z (ip), vehicle: saline) 142 % of control; (dose: 10.0 mg/kg/injection, schedule: Q01DX Z (ip), vehicle: saline) 136 % of control; under setting [8], 127 % of control.
Regarding `NC(N)=N/C(N)=N/NC(=O)c1ccncc1`, under “dose: 210.0 mg/kg/injection, schedule: Q01DX Z (ip), vehicle: methylcellulose (MC)”, the survivor count is 5 of 6.
On to `Cc1ccc2c(c1)P(O)(=S)c1cc(F)ccc1O2` (centres undefined), for which the survivor count (dose: 400.0 mg/kg/injection, schedule: Q01DX009 (ip), vehicle: saline) was 1 of 6.
As for `CC1CN1P(=O)(OCCCl)N1CC1C` (centres undefined), for the setting “dose: 320.0 mg/kg/injection, schedule: Q01DX Z (ip), vehicle: saline”, the survivor count is recorded as 0 of 6.
Consider `O=C(Nc1cccnc1)c1ccc([N+](=O)[O-])s1`, for which, where the note is “dose: 200.0 mg/kg/injection, schedule: Q01DX005 (ip), vehicle: saline”, the T/C is 125 % of control.
Take `O=C(O)CNC(=O)c1ccc(NC(=S)Nc2ccccc2)cc1`: the survivor count by setting is: under setting [2], 5 of 6; under setting [3], 0 of 6.

The record behind these values is PubChem BioAssay AID248 (DTP/NCI, 2004).
